These are yes or no findings as the source states them, for the method shown. Some results given as binding are weak or reduced against the parent protein; the word gives no strength.
Assays:
[1] = target: soluble domain2/domain3 (D2D3) fragment of suPAR (UniProt Q03405); test: Western blot
[2] = target: soluble domain2/domain3 (D2D3) fragment of suPAR (UniProt Q03405); test: Western blot, recombinant protein on PVDF probed with 5 ug/ml antibody
[3] = target: soluble domain2/domain3 (D2D3) fragment of suPAR (UniProt Q03405); test: Western blot, antibody 5 ug/ml

By UniProt entry, the sequences of proteins in these tests, tags left out. Residues count along the entry.
UniProt Q03405, residues 110-301: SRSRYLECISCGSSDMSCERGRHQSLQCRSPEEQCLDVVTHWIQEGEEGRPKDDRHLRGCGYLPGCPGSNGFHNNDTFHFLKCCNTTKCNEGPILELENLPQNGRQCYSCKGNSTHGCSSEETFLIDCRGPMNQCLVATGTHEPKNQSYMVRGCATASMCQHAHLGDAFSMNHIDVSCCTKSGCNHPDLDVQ

binding [1]: binds | binding [2]: binds | binding [3]: binds
B1: mAb ATN-615 (antibody, IgG1, V domains shown)
VH: VKLQQSGPEVVKPGASVKISCKASGYSFTNFYIHWVKQRPGQGLEWIGWIFHGSDNTEYNEKFKDKATLTADTSSSTAYMQLSSLTSEDSAVYFCARWGPHWYFDVWGQGTTVTVSS
VL: DIVLTQSPDITAASLGQKVTITCSASSSVSYMHWYQQKSGTSPKPWIFEISKLASGVPARFSGSGSGTSYSLTISSMEAEDAAIYYCQQWNYPFTFGGGTKLEIKR
